Laboratory results reported in PubChem BioAssay AID504834 (National Center for Advancing Translational Sciences (NCATS), 2011).
The whole screen tested about 320,000 compounds, of which about 22,000 (6.9%) were called active. Inconclusive means that the source gave no clear call. Such entries were picked first, then a sample of the others. Calls follow the shape of the dose curve; as a rule, active = well fitted inhibition curve with a large enough effect; inconclusive = small, poorly fitted or top-dose-only effect, or another doubt; inactive = no such curve, though single readings can be large or run the other way. Where the call is inconclusive, the potency comes from a doubtful curve fit.

experiment: Primary qHTS for delayed death inhibitors of the malarial parasite plastid, 96 hour incubation; settings: P. falciparum luciferase reporter growth; series mostly up to 28.7 µM
In short: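 Plates of compound plus infected erythrocytes (2% hematocrit, 0.05% parasitemia final) incubate 96 hours, 37 C, 5% CO2. Detection reagent added; reduced luminescence from the parasites' luciferase reporter flags inhibition.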
% is scaled to controls: 0 for no effect and ±100 for the full control effect; potency is read from the fitted curve at half-maximal effect.

For `c1coc(-c2ccnc3nc(-n4cccc4)nn23)c1`, which Potency is on record?
The Potency was inconclusive: 4.65 µM [inhibitor, partial curve].

For `CCn1nnnc1SCC(=O)N1c2ccccc2NC(=O)CC1C` (configuration not stated), which Potency is on record?
Its Potency is inconclusive: 3.7 µM [inhibitor, single point].

With `CC1=C(C(=O)OC(C)C)[C@@H](c2ccc(C)o2)NC(=O)N1` as the compound, how does the Potency read?
The Potency was “inactive”.

With `CC(C)Cn1cnc2c(c1=N)C(c1ccccc1)C1=C(CC(C)(C)CC1=O)O2` (configuration not stated) as the compound, how does the Potency read?
Its Potency is inconclusive: 4.15 µM [inhibitor, full curve].

For `Cc1cc(NC(=O)Cn2cnc3sc(C)c(-c4ccccc4)c3c2=O)no1`, which Potency is on record?
Its Potency is inconclusive: 23.3 µM [inhibitor, partial curve, poor fit].

For `CC(=O)c1ccc(NS(=O)(=O)c2ccc(N/C=C/C(=O)c3ccc(F)cc3)cc2)cc1`, which Potency is on record?
The Potency was inconclusive: 16.5 µM [inhibitor, single point].

For `O=C1OCC(c2ccccc2)=C1c1ccccc1`, which Potency is on record?
The Potency was “inactive”.

With `COc1ccc(/C=C2\OC(=S)N(C)C2=O)cc1` as the compound, how does the Potency read?
The Potency was inconclusive: 16.5 µM [inhibitor, single point].

With `c1ccc(-c2nc(N3CCCCC3)nc3ccccc23)cc1` as the compound, how does the Potency read?
The Potency was inconclusive: 7.38 µM [inhibitor, single point].

Which Potency does the source give for `Cc1ccc(N2CC(C(=O)Nc3ccc(N(C)C)cc3)CC2=O)cc1C` (configuration not stated) here?
The Potency was active: 8.28 µM.

Which Potency does the source give for `CC1(C)CC2C1CCC1(O)CC2(C)CCC1N(O)c1ccc(C(=O)NCCO)cn1` (configuration not stated) here?
The Potency was inconclusive: 18.5 µM [inhibitor, single point].

With `NC1=NC(=O)/C(=C\c2ccc(O)c([N+](=O)[O-])c2)S1` as the compound, how does the activity change, negative = inhibition read?
Its activity change, negative = inhibition is inactive: 31.7% [at 5.75 µM].

With `COC(=O)c1ccc(N2CCOCC2)c(NC(=O)c2ccc3c(c2)OCCO3)c1` as the compound, how does the Potency read?
Its Potency is inconclusive: 11.7 µM [inhibitor, single point].

For `CNc1ccc(Br)cc(C(=O)/C=C/c2ccc3c(c2)OCO3)c1=O`, which Potency is on record?
Its Potency is inconclusive: 6.57 µM [inhibitor, partial curve, poor fit].

For `CCOc1ccc(NS(=O)(=O)c2ccc(NC(=O)C3CC3)cc2)cc1`, which Potency is on record?
Its Potency is inconclusive: 18.5 µM [inhibitor, single point].

With `CCOc1ccc(C2CC(=O)NC3=C2C(=O)CCC3)cc1Cl` (configuration not stated) as the compound, how does the Potency read?
Its Potency is inconclusive: 9.28 µM [inhibitor, partial curve, poor fit].

Which Potency does the source give for `Cc1[nH]c(C)c(S(=O)(=O)N2c3ccccc3CC2C)c1C(=O)N1CCCCC1` (configuration not stated) here?
Its Potency is active: 14.7 µM.

With `COc1ccc(-n2c(SCc3ccc([N+](=O)[O-])cc3)nnc2-c2ccccc2)cc1` as the compound, how does the Potency read?
Its Potency is inconclusive: 10.4 µM [inhibitor, single point].

Which Potency does the source give for `CC(=O)Nc1ccc(C(=O)CSc2nc3ccccc3n2CC(=O)N2CCCC2)cc1` here?
Its Potency is active: 3.7 µM.

Which Potency does the source give for `COCCCNC(=O)CN1C(=O)CSc2ncccc21` here?
The Potency was active: 2.62 µM.

Which Potency does the source give for `O=C(CN1CCN(c2ccccc2)CC1)N1CCc2ccccc21` here?
Its Potency is “inactive”.

For `O=C(CSc1nnnn1Cc1ccccc1)NCCc1ccccc1`, which Potency is on record?
The Potency was “inactive”.

With `O=C1C=CC(O)(c2cc(=O)c3c(O)cc(O)cc3o2)C=C1` as the compound, how does the Potency read?
The Potency was active: 14.7 µM.

With `Cc1cc(C(=O)N/N=C/c2ccc(C)s2)n[nH]1` as the compound, how does the Potency read?
The Potency was inconclusive: 10.4 µM [inhibitor, partial curve].

Which Potency does the source give for `CCC1CCCCN1Cc1ccc(CNC(=O)CCc2nnc3ccc(N4CCCCC4)nn23)o1` (configuration not stated) here?
The Potency was inconclusive: 8.28 µM [inhibitor, single point].

With `Cc1occc1C(=O)NNC(=O)Nc1ccc([N+](=O)[O-])cc1` as the compound, how does the Potency read?
Its Potency is inconclusive: 9.28 µM [inhibitor, partial curve].

Which Potency does the source give for `O=C(Nc1ccc(-c2csc(Nc3cccc(C(F)(F)F)c3)n2)cc1)c1ccccc1` here?
Its Potency is inconclusive: 10.4 µM [inhibitor, single point].

With `COc1cc(C2CC(=O)c3c([nH]c(C(=O)OCCOC(C)C)c3C)C2)cc(OC)c1OC` (configuration not stated) as the compound, how does the Potency read?
The Potency was inconclusive: 2.94 µM [inhibitor, full curve, poor fit].

Which Potency does the source give for `Cc1cccc(C(CC(=O)NCc2ccco2)c2ccccc2)c1O` (configuration not stated) here?
Its Potency is inconclusive: 9.28 µM [inhibitor, partial curve, poor fit].

Which Potency does the source give for `O=C(Nc1cccc(O)c1)c1cccc(C(=O)Nc2cccc(O)c2)c1` here?
Its Potency is inconclusive: 18.5 µM [inhibitor, single point].

Which Potency does the source give for `O=C(CC(=O)NCc1ccccc1)NCc1ccccc1` here?
The Potency was “inactive”.

For `COc1ccc(C(C(=O)NC2CCCCC2)N(C(=O)CCl)c2cccc(Cl)c2)cc1` (configuration not stated), which Potency is on record?
Its Potency is inconclusive: 18.5 µM [inhibitor, single point].

With `O=C(C[n+]1ccc(Cc2ccccc2)cc1)Nc1ccc([N+](=O)[O-])cc1Cl` as the compound, how does the Potency read?
The Potency was “inactive”.

Which Potency does the source give for `O=[N+]([O-])c1cc(-c2ccc(C(=S)N3CCOCC3)o2)ccc1Cl` here?
The Potency was inconclusive: 4.15 µM [inhibitor, partial curve, poor fit].

With `O=C(COc1ccccc1)Nc1ncn[nH]1` as the compound, how does the Potency read?
The Potency was “inactive”.

With `Cc1cc(C)cc(OCC(=O)Nc2cccc(C(=O)O)c2)c1` as the compound, how does the Potency read?
Its Potency is “inactive”.

For `CCc1cc2c(=O)c(-c3nc4ccccc4[nH]3)coc2c(CN2CCCCC2)c1O`, which Potency is on record?
The Potency was “inactive”.

For `CCN(CCCNC(=O)C1CCC(=O)N1C1CCCC1)c1cccc(C)c1` (configuration not stated), which Potency is on record?
Its Potency is inconclusive: 10.4 µM [inhibitor, single point].

Which Potency does the source give for `Cc1[nH]c2ccc(O)cc2c1CCN` here?
Its Potency is “inactive”.

Which Potency does the source give for `CCc1ccccc1NC(=O)Nc1ccon1` here?
The Potency was “inactive”.

With `O=C(Cc1nnc(NC(=O)c2ccccc2)s1)N/N=C/c1cccc(O)c1` as the compound, how does the Potency read?
Its Potency is inconclusive: 0.329 µM [inhibitor, partial curve, poor fit].

For `CC(=O)/C(C#N)=C1\NC(=O)C(Cc2ccc(F)cc2)S1` (configuration not stated), which Potency is on record?
The Potency was “inactive”.

For `CCc1ccc(OC(C)C(=O)Nc2ccc(S(=O)(=O)Nc3cc(C)on3)cc2)cc1` (configuration not stated), which Potency is on record?
The Potency was inconclusive: 2.08 µM [inhibitor, full curve].

For `CCOC(=O)C1=C(C)N=c2s/c(=C/c3cccc([N+](=O)[O-])c3O)c(=O)n2C1c1ccc(OC)cc1OC` (configuration not stated), which Potency is on record?
Its Potency is active: 4.65 µM.

With `c1ccc(NC2=Nc3ccccc3CC2)cc1` as the compound, how does the Potency read?
The Potency was inconclusive: 13.1 µM [inhibitor, single point].

With `CSc1ccccc1OCc1cc(C(=O)N(C)Cc2cc(C)[nH]n2)no1` as the compound, how does the Potency read?
The Potency was “inactive”.

Which Potency does the source give for `CCCn1c(SC(C(=O)Nc2cccc(OC)c2)c2ccccc2)nc2ccccc2c1=O` (configuration not stated) here?
The Potency was “inactive”.

With `O=C(Nc1ccnc(-c2ccncc2)n1)c1ccc(Cl)cc1` as the compound, how does the Potency read?
Its Potency is “inactive”.

Which Potency does the source give for `Cc1nnc(Sc2c(N)n(C)c(=O)[nH]c2=O)s1` here?
The Potency was “inactive”.

With `CCO[C@H]1OC(C(=O)N2CCOCC2)=C[C@@H](c2ccc3c(c2)OCO3)[C@@H]1CCCO` as the compound, how does the Potency read?
Its Potency is “inactive”.

For `CC(C)(C)c1ccc(C(=O)NN2CCOCC2)cc1`, which Potency is on record?
Its Potency is inconclusive: 4.65 µM [inhibitor, partial curve].

With `O=C(NN1CCCCC1)c1ccc(COc2ccc(Cl)cc2)cc1` as the compound, how does the Potency read?
The Potency was inconclusive: 18.5 µM [inhibitor, partial curve, poor fit].

For `O=C(Nc1ccc(S(=O)(=O)N2CCCC2)cc1)c1cccc(OC(F)F)c1`, which Potency is on record?
The Potency was inconclusive: 11.7 µM [inhibitor, partial curve].

For `CCOC(=O)c1oc2nc(C)c3c(c2c1N)CC(C)(C)OC3`, which Potency is on record?
Its Potency is “inactive”.

With `COc1ccc(C(=O)NCc2ccc3c(c2)CCO3)cc1` as the compound, how does the Potency read?
The Potency was “inactive”.

For `Cc1cccc(N2CCN(C(=O)c3ccc(CS(=O)Cc4ccc(Cl)cc4)o3)CC2)c1C` (configuration not stated), which Potency is on record?
Its Potency is “inactive”.

For `CC(=O)N(C)c1ccc(OCC(O)Cn2c3ccc(Cl)cc3c3cc(Cl)ccc32)cc1` (configuration not stated), which Potency is on record?
Its Potency is inconclusive: 2.94 µM [inhibitor, full curve].

Which Potency does the source give for `COc1ccc(C(=O)OC(C(=O)c2ccccc2)c2ccccc2)cc1` (configuration not stated) here?
Its Potency is inconclusive: 13.1 µM [inhibitor, partial curve, poor fit].

Which Potency does the source give for `COc1cccc(Cn2nnc(C(=O)NCc3ccc4c(c3)OCO4)c2N)c1` here?
Its Potency is inconclusive: 0.0329 µM [inhibitor, full curve, poor fit].

Which Potency does the source give for `COc1ccc(C/C(N)=N/OC(=O)Cc2ccc(OC)c(OC)c2)cc1` here?
Its Potency is “inactive”.

For `O=C(C1=NN[C@@H]2C(=O)N(c3ccccc3C(F)(F)F)C(=O)[C@H]12)c1ccc2ccccc2n1`, which Potency is on record?
Its Potency is “inactive”.

For `O=C(O)c1ccc(Br)c(S(=O)(=O)N2CCCC2)c1`, which Potency is on record?
Its Potency is active: 13.1 µM.

With `Cc1cc(=O)oc2cc(OCC(=O)NC3CCN(Cc4ccccc4)CC3)ccc12` as the compound, how does the Potency read?
The Potency was “inactive”.

Which Potency does the source give for `O=C(c1ccccc1F)N1CCN(c2ccccc2)CC1` here?
Its Potency is “inactive”.

Which Potency does the source give for `COC(=O)c1ccc(N(CC(=O)NC2CCCC2)C(=O)CNC(=O)c2cccs2)cc1` here?
Its Potency is inconclusive: 9.28 µM [inhibitor, partial curve, poor fit].

With `COc1cc(/C=N/NC(=O)c2cc(-c3cccs3)nc3ccccc23)ccc1O` as the compound, how does the Potency read?
The Potency was inconclusive: 6.57 µM [inhibitor, single point].

Which Potency does the source give for `CCOC(=O)c1ccc(NC(=O)CSc2nnc(CNc3ccc(C)cc3)n2C)cc1` here?
The Potency was inconclusive: 18.5 µM [inhibitor, single point].

For `CC(C)N(C(=O)CN1C(=O)NC(c2ccccc2)(c2ccccc2)C1=O)C(C)C`, which Potency is on record?
The Potency was inconclusive: 8.28 µM [inhibitor, partial curve].

For `COc1cc(/C=C/C(=O)OCC(=O)Nc2ccc(NC(C)=O)cc2)cc(S(=O)(=O)N2CCc3ccccc32)c1OC`, which Potency is on record?
Its Potency is inconclusive: 18.5 µM [inhibitor, single point].

Which Potency does the source give for `Cc1ccc(C(=O)N2CCC(n3nccc3NC(=O)C3CCOC3)CC2)cc1` (configuration not stated) here?
The Potency was inconclusive: 20.8 µM [inhibitor, partial curve, poor fit].

For `COc1cc(/C=N/NC(=O)c2ccncc2)ccc1Oc1ccc([N+](=O)[O-])cn1`, which Potency is on record?
The Potency was inconclusive: 18.5 µM [inhibitor, single point].

Which Potency does the source give for `CCN(CC)C(=O)c1ccc(-c2ccccc2)cc1` here?
The Potency was inconclusive: 7.38 µM [inhibitor, partial curve].
